Values from PubChem BioAssay AID652272 (Drosophila RNAi Screening Center, 2013).

Aim: 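Finding fly genes that regulate Hedgehog signal transduction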 (primary screen)
Cells: Drosophila clone 8 (Cl8) cells
Knock-down reagent: long dsRNA against Drosophila genes
Measurement: 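Plate reader light from a firefly reporter under a ptc promoter fragment that responds to Hedgehog, with Renilla light as transfection reference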
Scale: firefly Hh reporter signal: higher = more ptc reporter light; Renilla reference signal: higher = more Renilla control light
Rule for the call: 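Called a hit if the two-replicate mean z-score lies below -2 or above +3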
Meaning of the calls: active = hit: reporter lowered or raised; inactive = not a hit
The deposit covers about 21,000 reagents; below is an unselected part of those with a known target gene and a result. In the full data, 503 (2.4%) are marked active. 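Raw plate light values, not normalised; calls rest on replicate z-scores that were not deposited; hits include reporter decreases as well as increases.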 Entries without a mark were called inactive. Reagents against one gene are numbered here. Names joined by + are all predicted targets of the reagent. Reagent sequences are not shown. Not given: the amount of reagent, the time to read-out.

Gene	dsRNA no.	firefly Hh reporter signal, replicate 1	firefly Hh reporter signal, replicate 2	firefly Hh reporter signal, replicate 3	Renilla reference signal, replicate 1	Renilla reference signal, replicate 2
CG13653	1	4.59e5	94241		25897	7540
CG34269	1	1.01e5	1.80e5		3136	7293
CG13032	1	1.62e5			2055	8009
polo	1	1.92e5	7.85e5	1.46e5	6508	47228
Axn (Axin)	1	4.78e5 (active)	1.10e5	76754	2600	2960
Sptr (Sepiapterin reductase)	1	86644	60356		2362	1904
CG6428	1	84133	1.54e5		2885	5677
Cyp12a5 (Cytochrome P450 12a5)	1	4.48e5	71382		25192	1799
hiro (highroad)	1	84821	49004		4488	2640
eIF1 (eukaryotic translation initiation factor 1)	1	1.10e5	40314		4256	3497
Veneno	1	56850	1.20e5		1376	3280
PCID2 (PCI domain-containing protein 2)	1	75500	58764		3877	2790
CG13326	1	98218	42416		3780	1204
Dlc90F (Dynein light chain 90F)	1	92042	71461		4141	3305
CG6094	1	1.23e5	1.79e5		5280	6310
CG4645	1	86470	57906		2696	1491
Jon25Bi (Jonah 25Bi)	1	1.05e5	49971		2868	5205
h-cup + Rbp	1	1.28e5	1.05e5		4043	2709
CG34178 + CG34177	1	1.05e5	46790		2597	5200
Pdss2 (Decaprenyl diphosphate synthase subunit 2)	1	82498	62567		3004	2457
Naa30A (N(alpha)-acetyltransferase 30 A)	1	71027	96120		816	1926
CG33514	1	64418	5.91e5	55095	5729	35536
CG33514	2	49336	56060		4736	3367
aurA (aurora A)	1	99621	1.01e5		4305	2137
kek2 (kekkon 2)	1	1.08e5	64731		2632	6034
Taf12 (TBP-associated factor 12)	1	89592	88484		3138	3608
CG7497	1	93944	54619		4378	2073
kumpel (kin of rumpel)	1	6.39e5	93044		32757	2864
kumpel (kin of rumpel)	2	4.95e5	96464		26400	2935
kumpel (kin of rumpel)	3	8.19e5	1.61e5		39587	4802
kumpel (kin of rumpel)	4	5.62e5	1.22e5		27682	10100
kumpel (kin of rumpel)	5	5.08e5	1.00e5		28940	8256
kumpel (kin of rumpel)	6	5.87e5	1.21e5		29845	10448
flw (flapwing)	1	99000	2.92e5		3090	9963
flw (flapwing)	2	80569	4.12e5		2880	14860
Tpl94D (Transition protein-like 94D)	1	53161	2.33e5		10998	4608
RpS14a (Ribosomal protein S14a)	1	75655 (active)	28016		5746	1474
CAH5 (Carbonic anhydrase 5)	1	80929	69466		3076	1227
Gp210 (Glycoprotein 210 kDa)	1	88192	1.05e5		1435	6896
Gp210 (Glycoprotein 210 kDa)	2	1.58e5	1.23e5		6408	4569
Idgf6 (Imaginal disc growth factor 6)	1	1.16e5	80509		4785	3676
Idgf5 (Imaginal disc growth factor 5)	1	96170	60832		4507	2582
Ice2 (Interacts with the C terminus of ELL 2)	1	1.32e5	81172		5421	3448
achi (achintya)	1	79172	45224		2077	3776
Nep2 (Neprilysin 2)	1	1.82e5	1.16e5		5969	2827
CG14966	1	70640	25144		2775	281
Ir68b (Ionotropic receptor 68b)	1	55513	42453	45457	4679	3065
Lpin (Lipin)	1	75017	46501		2855	2048
Cul1 (Cullin 1)	1	90011	52794		2953	1639
Boh2 (Buddy of Hmr 2)	1	1.34e5	84556		3829	6688
alpha-Est6 (alpha-Esterase-6)	1	1.04e5	97385		4342	4092
Gycalpha99B (Guanylyl cyclase alpha-subunit at 99B)	1	82706	1.19e5		2113	3195
CG4409	1	95659	41216		2666	3719
snk (snake)	1	94192	70480		2884	2087
Ercc1	1	33075	34768		2355	2011
CG34428	1	38085	39234	53833	3881	3440
CG7352	1	90550	1.64e5		3430	4880
